Data taken from the supplement of paper PMC10849652.
This is one part of the list.

The chains behind the UniProt entries cited, without tags or fusion partners. Where a name states a change or a piece, a line headed by the entry shows the natural chain unless it says otherwise.
UniProt Q9Y2I1: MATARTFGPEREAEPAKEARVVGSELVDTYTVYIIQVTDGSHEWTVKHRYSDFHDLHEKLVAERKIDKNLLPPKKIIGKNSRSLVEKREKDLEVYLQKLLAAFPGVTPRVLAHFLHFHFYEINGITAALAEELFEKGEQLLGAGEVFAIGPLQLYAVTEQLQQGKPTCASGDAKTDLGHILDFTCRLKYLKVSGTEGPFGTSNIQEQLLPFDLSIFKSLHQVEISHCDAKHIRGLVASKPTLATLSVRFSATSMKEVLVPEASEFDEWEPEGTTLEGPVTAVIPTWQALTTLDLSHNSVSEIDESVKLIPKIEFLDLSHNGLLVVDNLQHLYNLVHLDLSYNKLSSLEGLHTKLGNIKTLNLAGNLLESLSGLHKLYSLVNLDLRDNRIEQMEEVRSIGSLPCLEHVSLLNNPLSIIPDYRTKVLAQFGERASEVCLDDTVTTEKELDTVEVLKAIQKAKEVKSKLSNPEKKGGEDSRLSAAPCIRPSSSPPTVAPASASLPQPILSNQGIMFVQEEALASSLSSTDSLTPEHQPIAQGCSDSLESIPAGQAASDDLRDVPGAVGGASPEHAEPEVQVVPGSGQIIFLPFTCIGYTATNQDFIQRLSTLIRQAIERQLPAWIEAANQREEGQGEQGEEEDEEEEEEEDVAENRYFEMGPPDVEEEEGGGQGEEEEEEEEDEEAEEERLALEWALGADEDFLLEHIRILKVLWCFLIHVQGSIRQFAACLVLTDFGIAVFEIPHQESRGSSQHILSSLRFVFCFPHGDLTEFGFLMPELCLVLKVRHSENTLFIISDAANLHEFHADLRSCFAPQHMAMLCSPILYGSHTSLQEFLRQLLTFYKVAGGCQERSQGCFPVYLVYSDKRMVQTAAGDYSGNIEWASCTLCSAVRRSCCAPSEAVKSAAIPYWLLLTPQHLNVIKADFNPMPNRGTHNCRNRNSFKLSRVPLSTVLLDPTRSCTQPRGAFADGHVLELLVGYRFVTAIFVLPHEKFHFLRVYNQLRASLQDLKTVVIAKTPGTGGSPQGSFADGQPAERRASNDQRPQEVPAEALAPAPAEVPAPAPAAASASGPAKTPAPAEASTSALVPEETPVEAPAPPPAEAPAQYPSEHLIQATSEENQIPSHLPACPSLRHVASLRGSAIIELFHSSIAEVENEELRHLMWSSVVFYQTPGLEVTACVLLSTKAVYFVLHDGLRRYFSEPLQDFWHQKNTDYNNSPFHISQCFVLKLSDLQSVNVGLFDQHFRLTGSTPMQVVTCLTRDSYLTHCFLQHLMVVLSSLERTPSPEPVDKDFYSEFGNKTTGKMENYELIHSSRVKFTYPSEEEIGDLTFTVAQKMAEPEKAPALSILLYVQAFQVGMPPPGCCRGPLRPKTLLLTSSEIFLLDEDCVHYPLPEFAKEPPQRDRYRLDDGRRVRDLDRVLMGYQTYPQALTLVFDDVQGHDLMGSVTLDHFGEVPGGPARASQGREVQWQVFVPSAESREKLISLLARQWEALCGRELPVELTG
UniProt Q12857, whole entry, looked up: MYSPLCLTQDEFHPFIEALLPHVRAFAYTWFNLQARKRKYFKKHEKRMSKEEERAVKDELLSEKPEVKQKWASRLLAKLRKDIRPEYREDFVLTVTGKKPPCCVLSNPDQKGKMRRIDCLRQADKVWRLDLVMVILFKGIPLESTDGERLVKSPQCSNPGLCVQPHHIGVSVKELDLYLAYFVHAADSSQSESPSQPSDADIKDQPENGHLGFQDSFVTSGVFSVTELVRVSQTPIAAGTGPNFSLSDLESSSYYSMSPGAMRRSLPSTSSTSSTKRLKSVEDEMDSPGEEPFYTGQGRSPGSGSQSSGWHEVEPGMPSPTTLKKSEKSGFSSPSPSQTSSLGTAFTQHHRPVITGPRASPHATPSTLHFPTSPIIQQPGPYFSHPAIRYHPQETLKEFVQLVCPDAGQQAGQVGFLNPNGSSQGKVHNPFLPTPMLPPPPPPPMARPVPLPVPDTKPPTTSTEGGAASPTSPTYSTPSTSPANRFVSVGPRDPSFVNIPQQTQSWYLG
UniProt Q8NHV4, whole entry, looked up: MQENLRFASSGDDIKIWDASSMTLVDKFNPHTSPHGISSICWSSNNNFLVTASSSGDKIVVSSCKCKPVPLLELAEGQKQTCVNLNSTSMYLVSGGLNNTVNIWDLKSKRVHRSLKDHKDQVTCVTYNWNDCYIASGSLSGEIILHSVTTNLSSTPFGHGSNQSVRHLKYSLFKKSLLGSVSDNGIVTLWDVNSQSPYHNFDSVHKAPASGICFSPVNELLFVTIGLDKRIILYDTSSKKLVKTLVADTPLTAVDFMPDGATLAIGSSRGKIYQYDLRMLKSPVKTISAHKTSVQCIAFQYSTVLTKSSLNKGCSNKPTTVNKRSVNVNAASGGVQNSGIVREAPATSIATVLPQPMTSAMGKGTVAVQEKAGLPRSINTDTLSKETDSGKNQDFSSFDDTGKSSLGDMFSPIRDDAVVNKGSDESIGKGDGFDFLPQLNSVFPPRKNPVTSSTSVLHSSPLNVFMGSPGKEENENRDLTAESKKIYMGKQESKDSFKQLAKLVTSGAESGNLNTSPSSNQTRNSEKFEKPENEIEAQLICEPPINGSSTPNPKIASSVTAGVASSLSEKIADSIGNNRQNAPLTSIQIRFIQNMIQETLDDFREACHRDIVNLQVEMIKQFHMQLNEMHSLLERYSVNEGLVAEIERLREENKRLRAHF
UniProt Q9BS92: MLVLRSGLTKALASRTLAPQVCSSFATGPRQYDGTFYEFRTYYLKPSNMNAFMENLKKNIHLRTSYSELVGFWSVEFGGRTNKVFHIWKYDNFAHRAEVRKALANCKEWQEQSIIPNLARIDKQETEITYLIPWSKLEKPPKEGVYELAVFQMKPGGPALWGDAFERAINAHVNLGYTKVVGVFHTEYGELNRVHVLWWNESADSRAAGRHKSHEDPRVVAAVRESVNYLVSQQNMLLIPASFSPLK
UniProt Q9UI09, whole entry, looked up: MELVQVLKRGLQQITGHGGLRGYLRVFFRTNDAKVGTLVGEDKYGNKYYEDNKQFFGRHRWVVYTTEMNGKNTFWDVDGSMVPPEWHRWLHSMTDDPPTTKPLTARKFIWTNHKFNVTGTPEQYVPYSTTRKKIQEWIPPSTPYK
UniProt Q9UFN0: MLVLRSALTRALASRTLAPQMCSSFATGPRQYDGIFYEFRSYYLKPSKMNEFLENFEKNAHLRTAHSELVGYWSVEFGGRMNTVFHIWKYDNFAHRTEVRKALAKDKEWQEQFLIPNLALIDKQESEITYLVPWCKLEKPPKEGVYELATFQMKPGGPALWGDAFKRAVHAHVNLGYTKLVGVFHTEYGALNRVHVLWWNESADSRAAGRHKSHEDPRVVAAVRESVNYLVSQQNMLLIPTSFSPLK
UniProt Q6NW34: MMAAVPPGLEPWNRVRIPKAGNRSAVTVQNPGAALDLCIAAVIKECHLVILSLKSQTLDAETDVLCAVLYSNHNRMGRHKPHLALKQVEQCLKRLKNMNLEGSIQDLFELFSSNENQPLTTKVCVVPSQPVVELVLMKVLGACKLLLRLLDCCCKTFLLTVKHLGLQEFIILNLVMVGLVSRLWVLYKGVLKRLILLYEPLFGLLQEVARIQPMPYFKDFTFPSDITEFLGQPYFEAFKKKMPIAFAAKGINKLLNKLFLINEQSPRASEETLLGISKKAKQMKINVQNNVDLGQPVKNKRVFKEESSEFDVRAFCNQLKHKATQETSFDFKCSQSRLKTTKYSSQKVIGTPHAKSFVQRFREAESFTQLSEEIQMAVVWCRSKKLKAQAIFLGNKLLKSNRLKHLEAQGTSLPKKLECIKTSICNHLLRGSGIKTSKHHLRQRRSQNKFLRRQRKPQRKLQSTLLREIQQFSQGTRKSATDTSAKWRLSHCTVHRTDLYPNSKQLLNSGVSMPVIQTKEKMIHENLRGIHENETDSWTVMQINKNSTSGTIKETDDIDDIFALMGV
UniProt Q9UBE8: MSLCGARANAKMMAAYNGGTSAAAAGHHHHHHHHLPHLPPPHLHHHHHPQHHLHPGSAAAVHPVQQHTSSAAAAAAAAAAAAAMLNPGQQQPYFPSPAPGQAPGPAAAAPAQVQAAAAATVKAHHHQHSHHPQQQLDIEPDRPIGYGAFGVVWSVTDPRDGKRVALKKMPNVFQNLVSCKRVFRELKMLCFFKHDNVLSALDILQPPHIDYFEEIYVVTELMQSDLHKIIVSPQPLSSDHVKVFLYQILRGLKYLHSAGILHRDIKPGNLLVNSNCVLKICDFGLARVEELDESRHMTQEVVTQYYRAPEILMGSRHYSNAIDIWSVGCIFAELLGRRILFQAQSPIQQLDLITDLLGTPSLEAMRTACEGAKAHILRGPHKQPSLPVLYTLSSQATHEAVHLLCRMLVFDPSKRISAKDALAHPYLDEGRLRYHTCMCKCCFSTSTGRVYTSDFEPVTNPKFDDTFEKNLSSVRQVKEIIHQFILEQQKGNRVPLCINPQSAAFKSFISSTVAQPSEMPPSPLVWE
UniProt Q16236, whole entry, looked up: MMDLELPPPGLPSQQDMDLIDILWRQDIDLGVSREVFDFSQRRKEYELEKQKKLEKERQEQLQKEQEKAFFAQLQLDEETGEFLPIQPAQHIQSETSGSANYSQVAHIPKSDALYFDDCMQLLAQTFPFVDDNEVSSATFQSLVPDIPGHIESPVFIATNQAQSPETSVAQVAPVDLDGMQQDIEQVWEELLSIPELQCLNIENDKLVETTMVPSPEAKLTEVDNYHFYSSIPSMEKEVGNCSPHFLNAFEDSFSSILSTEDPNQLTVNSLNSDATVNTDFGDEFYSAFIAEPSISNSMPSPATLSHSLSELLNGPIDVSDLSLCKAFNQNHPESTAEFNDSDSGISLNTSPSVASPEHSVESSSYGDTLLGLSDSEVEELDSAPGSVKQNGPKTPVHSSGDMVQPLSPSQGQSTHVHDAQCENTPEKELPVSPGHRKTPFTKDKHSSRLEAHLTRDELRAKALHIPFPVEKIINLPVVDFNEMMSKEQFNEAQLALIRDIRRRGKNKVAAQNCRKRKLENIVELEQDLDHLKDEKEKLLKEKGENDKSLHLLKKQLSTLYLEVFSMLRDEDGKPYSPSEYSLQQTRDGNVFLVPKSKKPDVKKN
UniProt Q7Z628: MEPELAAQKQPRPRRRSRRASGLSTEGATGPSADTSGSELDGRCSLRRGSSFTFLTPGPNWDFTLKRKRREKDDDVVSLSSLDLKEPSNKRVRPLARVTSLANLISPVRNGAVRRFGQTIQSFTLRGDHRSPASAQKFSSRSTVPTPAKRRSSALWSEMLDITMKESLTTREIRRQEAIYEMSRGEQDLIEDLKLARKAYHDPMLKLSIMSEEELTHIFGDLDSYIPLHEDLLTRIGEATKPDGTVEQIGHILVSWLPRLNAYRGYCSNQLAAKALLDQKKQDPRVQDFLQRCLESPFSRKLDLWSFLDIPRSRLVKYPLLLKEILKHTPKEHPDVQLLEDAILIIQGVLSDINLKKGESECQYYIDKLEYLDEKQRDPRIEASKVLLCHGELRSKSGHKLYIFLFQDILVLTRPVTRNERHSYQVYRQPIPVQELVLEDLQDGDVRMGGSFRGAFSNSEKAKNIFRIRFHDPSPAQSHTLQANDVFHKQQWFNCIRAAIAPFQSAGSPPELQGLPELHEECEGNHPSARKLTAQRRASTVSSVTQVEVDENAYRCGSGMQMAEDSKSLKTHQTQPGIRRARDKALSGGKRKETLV
UniProt Q14494: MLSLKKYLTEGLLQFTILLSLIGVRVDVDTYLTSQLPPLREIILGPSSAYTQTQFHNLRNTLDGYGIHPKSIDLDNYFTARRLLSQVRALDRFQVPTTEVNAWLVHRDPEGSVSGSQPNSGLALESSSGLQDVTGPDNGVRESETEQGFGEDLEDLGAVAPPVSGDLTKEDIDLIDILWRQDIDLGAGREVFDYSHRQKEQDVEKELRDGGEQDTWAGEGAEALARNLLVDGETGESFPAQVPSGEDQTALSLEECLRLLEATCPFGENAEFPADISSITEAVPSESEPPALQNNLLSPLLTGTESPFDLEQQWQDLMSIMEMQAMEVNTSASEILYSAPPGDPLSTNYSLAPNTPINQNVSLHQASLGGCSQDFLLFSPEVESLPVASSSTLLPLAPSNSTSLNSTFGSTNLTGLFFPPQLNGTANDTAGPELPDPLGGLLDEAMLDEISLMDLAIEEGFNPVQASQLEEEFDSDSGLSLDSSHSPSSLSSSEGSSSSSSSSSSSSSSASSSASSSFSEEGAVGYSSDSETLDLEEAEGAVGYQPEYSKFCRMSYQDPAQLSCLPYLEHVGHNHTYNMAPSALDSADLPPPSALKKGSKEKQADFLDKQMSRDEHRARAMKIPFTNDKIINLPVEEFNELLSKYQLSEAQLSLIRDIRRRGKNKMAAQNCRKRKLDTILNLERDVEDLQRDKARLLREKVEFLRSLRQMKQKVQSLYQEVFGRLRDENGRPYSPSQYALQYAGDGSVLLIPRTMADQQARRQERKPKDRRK

Assays:
Test in all cases: log2 fold change, soluble protein after heating vs DMSO (PISA); higher = thermal stabilisation; K562 lysate, 10 uM; active = over 0.2 and 3.5 SD of the protein, either way, in both replicates (recomputed)
erlotinib = compound: C#Cc1cccc(Nc2ncnc3cc(OCCOC)c(OCCOC)cc23)c1 [erlotinib]
Summary of the method: (§1)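 Values give the log-two fold change in thermal stability against solvent controls, from duplicates. Crude K562 extract at 1 mg/mL protein, made by dounce homogenisation in PBS pH 7.4 with 1 mM MgCl2, was treated with 10 μM compound for 30 min. After 3 min heating across 48°C-58°C, aliquots were pooled, adjusted to 0.5% NP-40 at 4°C and centrifuged at 21,000xg for 90 min. The supernatant was measured by TMTpro 16plex LC-MS/MS with channel sums equalised.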

[1] = compound: C/C(=N\NC(=O)C1=CC(=CC=C1)S(=O)(=O)N2CCOCC2)/C3=C(C=CC(=C3)Cl)O
Summary of the method: as §1

[2] = compound: C1=CC(=CC=C1C2=NC3=C(N2)C=C(C=C3)C(=O)N)OC4=CC=C(C=C4)Cl
Summary of the method: as §1

[3] = compound: C1=CC2=C(C=CC(=C2)/C=C\3/C(=O)NC(=NCC4=CC=CS4)S3)N=C1
Summary of the method: as §1

[4] = compound: C1=CC=C(C=C1)C2=NC(=C(N2)C3=CC=NC=C3)C4=CC(=C(C=C4)Cl)O
Summary of the method: as §1

[5] = compound: C1=CC=C2C(=C1)C3=NNC4=CC=CC(=C43)C2=O
Summary of the method: as §1

[6] = compound: C1CCN(C1)C(=O)NC2=CC=CC(=C2)NC3=NC=C(C(=N3)NCCC4=CN=CN4)Br
Summary of the method: as §1

[7] = compound: C1CN(CCC1(CC2=CC=C(C=C2)Cl)N)C3=NC=NC4=C3C=CN4
Summary of the method: as §1

IRAK-1-4 Inhibitor I = compound: C1COCCN1CCN2C3=CC=CC=C3N=C2NC(=O)C4=CC(=CC=C4)[N+](=O)[O-] [IRAK-1-4 Inhibitor I]
Summary of the method: as §1

[8] = compound: CC(=O)c1cnc2ccc(-c3cc(Cl)c(O)c(Cl)c3)nc2c1N[C@H]1CC[C@H](CN(C)C)CC1
Summary of the method: as §1

ralimetinib = compound: CC(C)(C)Cn1c(N)nc2ccc(-c3[nH]c(C(C)(C)C)nc3-c3ccc(F)cc3)nc21 [ralimetinib]
Summary of the method: as §1

[9] = compound: CC(C)(O)CC(=O)NCCn1ccc2ncnc(Nc3ccc(Oc4cccc(C(F)(F)F)c4)c(Cl)c3)c21
Summary of the method: as §1

[10] = compound: CC(C)C1=C2N=C(C=C(N2N=C1)NCC3=CC=CC=C3)NCCCCCCN
Summary of the method: as §1

[11] = compound: CC1=C(C(CC(=O)N1)C2=CC=C(C=C2)C(F)(F)F)C(=O)NC3=C(C=C4C(=C3)C=NN4)F
Summary of the method: as §1

[12] = compound: CC1=C(C2=C(C=C1)C(=O)C3=CC=CC=C3N2CCCN)C
Summary of the method: as §1

[13] = compound: CC1=C(C=C(C=C1)NC(=O)C2=CC(=CC=C2)C(C)(C)C#N)NC3=CC4=C(C=C3)N=CN(C4=O)C
Summary of the method: as §1

[14] = compound: CC1=C(C=C(C=C1)NC(=O)C2=CC(=CC=C2)N(C)C)NC(=O)C3=CC=C(C=C3)O
Summary of the method: as §1

[15] = compound: CC1=CC=C(C=C1)SC2=C3C=C(SC3=CN=C2)C(=O)N
Summary of the method: as §1

[16] = compound: C1=CC2=NC=CN=C2C=C1/C=C/3\C(=O)NC(=O)S3
Summary of the method: as §1

ibrutinib = compound: C=CC(=O)N1CCC[C@@H](n2nc(-c3ccc(Oc4ccccc4)cc3)c3c(N)ncnc32)C1 [ibrutinib]
Summary of the method: as §1

Measured: log2 fold change

NKRF isoform 2 (UniProt O15226)
inactive: erlotinib -0.031 | [1] 0.047 | [2] -0.033 | [3] -0.064 | [4] 0.044 | [5] 0.075 | [6] -0.1 | [7] -0.003 | IRAK-1-4 Inhibitor I 0.124 | [8] 0.057 | ralimetinib 0.09 | [9] 0.008 | [10] -0.066 | [11] 0.048 | [12] -0.078 | [13] -0.076 | [14] -0.071 | [15] -0.029

NISCH (UniProt Q9Y2I1)
inactive: erlotinib 0.024 | [1] 0.006 | [2] 0.002 | [3] -0.006 | [16] -0.045 | [4] -0.019 | [5] -0.011 | [6] -0.002 | [7] -0.034 | IRAK-1-4 Inhibitor I 0 | ibrutinib 0.009 | [8] -0.035 | ralimetinib 0.037 | [9] -0.014 | [10] -0.024 | [11] -0.013 | [12] -0.003 | [13] 0.003 | [14] 0.01 | [15] 0.005

NIBAN1 (UniProt Q9BZQ8)
inactive: erlotinib 0.048 | [1] -0.025 | [2] 0.017 | [3] 0.011 | [16] 0.002 | [4] 0.009 | [5] -0.039 | [6] -0.003 | [7] 0.002 | IRAK-1-4 Inhibitor I 0.023 | ibrutinib 0.009 | [8] -0.024 | ralimetinib 0.011 | [9] -0.006 | [10] 0.01 | [11] 0.022 | [12] -0.002 | [13] -0.014 | [14] 0.055 | [15] -0.003

Reprinted from the entries so far (2 entries):
NKRF isoform 2 (UniProt O15226)
inactive: erlotinib -0.031 | [1] 0.047 | [2] -0.033 | [3] -0.064 | [4] 0.044 | [5] 0.075 | [6] -0.1 | [7] -0.003 | IRAK-1-4 Inhibitor I 0.124 | [8] 0.057 | ralimetinib 0.09 | [9] 0.008 | [10] -0.066 | [11] 0.048 | [12] -0.078 | [13] -0.076 | [14] -0.071 | [15] -0.029

NISCH (UniProt Q9Y2I1)
inactive: erlotinib 0.024 | [1] 0.006 | [2] 0.002 | [3] -0.006 | [16] -0.045 | [4] -0.019 | [5] -0.011 | [6] -0.002 | [7] -0.034 | IRAK-1-4 Inhibitor I 0 | ibrutinib 0.009 | [8] -0.035 | ralimetinib 0.037 | [9] -0.014 | [10] -0.024 | [11] -0.013 | [12] -0.003 | [13] 0.003 | [14] 0.01 | [15] 0.005

Next part

NFIA isoform 4 (UniProt Q12857)
inactive: erlotinib 0.023 | [1] 0.05 | [2] -0.005 | [3] 0.079 | [16] -0.018 | [4] -0.138 | [5] -0.044 | IRAK-1-4 Inhibitor I 0.105 | ibrutinib 0.089 | [8] -0.015 | ralimetinib 0.032 | [9] -0.085 | [10] 0.082 | [11] 0.016 | [12] -0.191 | [13] -0.052 | [14] 0.023 | [15] -0.07

NEDD1 isoform 3 (UniProt Q8NHV4)
inactive: erlotinib 0.055 | [1] -0.013 | [2] 0.057 | [3] 0.057 | [16] -0.022 | [4] 0.019 | [5] 0.005 | [6] 0.034 | [7] -0.05 | IRAK-1-4 Inhibitor I 0.048 | ibrutinib 0.016 | [8] -0.036 | ralimetinib -0.019 | [9] -0.01 | [10] -0.017 | [11] 0.017 | [12] 0.034 | [13] -0.03 | [14] 0.029 | [15] -0.005

NIPSNAP3B (UniProt Q9BS92)
inactive: erlotinib -0.062 | [1] 0.078 | [2] 0.037 | [3] 0.051 | [16] 0.018 | [4] 0.016 | [5] -0.05 | [6] -0.011 | [7] -0.149 | IRAK-1-4 Inhibitor I 0.041 | ibrutinib 0.066 | [8] 0.047 | ralimetinib 0.011 | [9] -0.091 | [10] -0.007 | [11] 0.004 | [13] 0.079 | [14] 0.023 | [15] 0.038

NDUFA12 (UniProt Q9UI09)
inactive: erlotinib -0.065 | [1] 0.147 | [2] -0.07 | [3] 0.081 | [16] -0.083 | [4] -0.035 | [5] -0.081 | [6] -0.023 | [7] 0.046 | IRAK-1-4 Inhibitor I -0.031 | ibrutinib -0.04 | [8] -0.042 | ralimetinib -0.017 | [9] -0.048 | [10] -0.003 | [11] 0.036 | [12] 0.038 | [13] -0.047 | [14] -0.013 | [15] -0.01

NIPSNAP3A (UniProt Q9UFN0)
inactive: erlotinib 0.008 | [1] -0.014 | [2] 0.062 | [3] -0.03 | [16] 0.012 | [4] 0.003 | [5] 0.015 | [6] -0.012 | [7] 0.002 | IRAK-1-4 Inhibitor I 0.015 | ibrutinib -0.013 | [8] -0.014 | ralimetinib -0.016 | [9] -0.049 | [10] 0.029 | [11] 0.023 | [12] -0.021 | [13] 0.004 | [14] 0.022 | [15] -0.056

NDUFA7 (UniProt M0R0N0)
inactive: [16] -0.092 | ibrutinib 0

NFKB1 isoform 2 (UniProt P19838)
inactive: [1] -0.044 | [2] -0.035 | [3] -0.006 | [16] -0.002 | [4] 0.008 | [5] -0.013 | [6] -0.015 | [7] 0.013 | IRAK-1-4 Inhibitor I 0.019 | ibrutinib 0.007 | [8] 0.017 | ralimetinib 0.013 | [9] -0.016 | [10] 0.004 | [11] 0.054 | [12] -0.014 | [13] -0.027 | [14] 0.056 | [15] -0.007

NEPRO (UniProt Q6NW34)
inactive: erlotinib -0.029 | [2] -0.024 | [16] 0 | [4] 0.031 | [6] 0.007 | [7] -0.007 | IRAK-1-4 Inhibitor I -0.101 | ibrutinib 0.065 | [8] -0.035 | ralimetinib 0.086 | [9] -0.053 | [10] -0.001 | [11] 0.158 | [12] -0.015 | [13] 0.02 | [14] -0.026 | [15] 0.018

NEIL2 (UniProt Q969S2)
inactive: erlotinib 0.087 | [2] 0.144 | [10] 0.039 | [11] 0.143

NLK (UniProt Q9UBE8)
inactive: erlotinib 0.011 | [1] 0.295 | [2] 0.008 | [3] 0.271 | [5] -0.059 | [10] -0.058

NFIX (UniProt Q14938)
inactive: [6] 0.044 | [7] 0.023

NFE2L2 (UniProt Q16236)
inactive: [13] 0.068

NET1 (UniProt Q7Z628)
inactive: erlotinib -0.074 | [1] 0.148 | [2] -0.01 | [3] -0.226 | [4] 0.032 | [5] -0.022 | IRAK-1-4 Inhibitor I 0.01 | ralimetinib -0.237 | [9] 0.02 | [10] 0.038 | [11] -0.01 | [13] -0.057 | [14] 0.024

NFE2L1 (UniProt Q14494)
inactive: erlotinib -0.043 | [1] -0.068 | [2] 0.139 | [3] -0.019 | [4] -0.152 | [5] -0.007 | [6] -0.112 | [7] -0.088 | IRAK-1-4 Inhibitor I -0.055 | ralimetinib 0.202 | [9] 0.058 | [10] -0.076 | [13] -0.024 | [14] -0.236
